Measured values from patent publication US7238775B2 (The Salk Institute for Biological Studies, priority 2002, dated 2007).
Strings that start with PEPTIDE1 are HELM notation: dots part the residues, brackets hold end groups and non-standard residues.

Test: general procedure: Boc solid-phase peptide synthesis; chloromethylated resin or hydroxymethylated resin
Conditions: late stage modification step, CZE

Substance | final purity (method not given)
PEPTIDE1{[3ITyr].C.F.A.W.K.T.F.C}$PEPTIDE1,PEPTIDE1,2:R3-9:R3$$$V2.0 | about 99%

Same assay, conditions: whole synthesis, CZE

Substance | final purity (method not given)
(cyclo)H-Tyr-Cys-Phe-4 Amp-Trp-Lys-Thr-Phe-Cys-OH | greater than 98%
(cyclo)H-Cys-Phe-Ala-Trp-Lys-Thr-Ala-Cys-OH | greater than 98%
(cyclo)H-Cys-Phe-4Aph-2Nal-Lys-Thr-Phe-Cys-OH | greater than 99%
(cyclo)H-Tyr-Cys-Phe-4Aph-D-Trp-Lys-Thr-Phe-Cys-OH | about 98%
(cyclo)Cbm-Cys-Phe-4Aph-D-Trp-Lys-Thr-Tyr-Cys-OH | about 98%
(cyclo)H-Cys-Phe-Ala-Trp-Lys-Thr-Phe-Cys-OH | about 98%
(cyclo)H-Cys-Phe-Tyr-threo-(2S,3R)C^βMe-2Nal-Lys-Thr-Phe-Cys-OH | about 99%
(cyclo)Cbm-Cys-Phe-4Aph-Trp-Lys-Thr-Phe-Cys-OH | about 92%
(cyclo)H-D-Cys-Phe-Tyr-threo-(2S,3R)C^βMe-2Nal-Lys-Thr-Phe-Cys-OH | greater than 95%
(cyclo)H-Cys-Phe-4Aph-Trp-Lys-Thr-Phe-Cys-OH | greater than 97%
(cyclo)Cbm-Cys-Phe-4Aph-D-Trp-Lys-Thr-Phe-Cys-OH | about 98%
(cyclo)Cbm-Cys-Phe-4Aph-Trp-Lys-Thr-Tyr-Cys-OH | about 90%
(cyclo)Cbm-Tyr-Cys-Phe-Amp-Trp-Lys-Thr-Phe-Cys-OH | about 91%
(cyclo)H-Cys-Phe-Ala-D-Trp-Lys-Thr-Phe-Cys-OH | greater than 93%
(cyclo)Cys-Phe-Ala-D-Trp-Lys-Thr-Ala-Cys-OH | about 99%
(cyclo)H-Cys-Phe-4Aph-Trp-Lys-Thr-Tyr-Cys-OH | greater than 97%
(cyclo)H-Tyr-Cys-Phe-4Aph-Trp-Lys-Thr-Phe-Cys-OH | about 98%
(cyclo)H-Cys-Phe-Tyr-threo-(2R,3S)C^βMe-2Nal-Lys-Thr-Phe-Cys-OH | about 99%
(cyclo)Cbm-Tyr-Cys-Phe-4Aph-Trp-Lys-Thr-Phe-Cys-OH | about 92%
(cyclo)H-D-Cys-Phe-Tyr-threo-(2R,3S)C^βMe-2Nal-Lys-Thr-Phe-Cys-OH | greater than 95%
(cyclo)H-Cys-Phe-4Aph-D-Trp-Lys-Thr-Phe-Cys-OH | about 98%
